According to the supplement of paper PMC10626197:
Counter-ions that a name gives are not always drawn. Several reference drugs read as weak here; read low effects with care.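 MCF7, a breast cancer cell line, was exposed to pairs of drugs across a grid of doses. Every plate had solvent-only (DMSO) wells as the untreated reference and a doxorubicin series as the total-kill control. No hit threshold is applied to these viability readings.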

Tested on: MCF7
Experiment: cell viability relative to DMSO control (raw); higher = more viable cells
Conditions: exposure time 72 h
Procedure: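 MCF7 cells, 1000 cells/well in 384-well plates, treated with 6x6 dose matrices of drug pairs (1:3 serial dilutions, DMSO as lowest dose) for 72 h at 37 °C. Viability read by CellTiter-Glo luminescence, 3 biological replicates. Normalised viability sets 0% at the highest doxorubicin dose and 100% at the 0,0 µM control per combination.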

CC(=O)O[C@H]1C(=O)[C@@]2(C)[C@H]([C@H](OC(=O)c3ccccc3)[C@]3(O)C[C@H](OC(=O)[C@H](O)[C@@H](NC(=O)c4ccccc4)c4ccccc4)C(C)=C1C3(C)C)[C@]1(OC(C)=O)CO[C@@H]1C[C@@H]2O [Paclitaxel] + CCCNC(=O)c1cn2ncnc(Nc3cc(C(=O)NC4CC4)ccc3C)c2c1C [BMS-582949 (hydrochloride)]
cell viability [%]
Conditions | drug 2 concentration 0 µM | drug 2 concentration 0.37037 µM | drug 2 concentration 1.11111 µM | drug 2 concentration 3.33333 µM | drug 2 concentration 10 µM | drug 2 concentration 30 µM
drug 1 concentration 0.00617284 µM | 85.2 | 81.5 | 85.9 | 76.3 | 69.1 | 62.9
drug 1 concentration 0.0185185 µM | 90.8 | 83.3 | 91.7 | 90.7 | 79.4 | 72.2
drug 1 concentration 0.0555556 µM | 103 | 95.2 | 97.1 | 101 | 92.5 | 87.5
drug 1 concentration 0.166667 µM | 87.8 | 81.6 | 94.5 | 94.2 | 83 | 65
drug 1 concentration 0.5 µM | 107 | 101 | 101 | 98.9 | 91.2 | 82.7

CC(=O)O[C@H]1C(=O)[C@@]2(C)[C@H]([C@H](OC(=O)c3ccccc3)[C@]3(O)C[C@H](OC(=O)[C@H](O)[C@@H](NC(=O)c4ccccc4)c4ccccc4)C(C)=C1C3(C)C)[C@]1(OC(C)=O)CO[C@@H]1C[C@@H]2O [Paclitaxel] + COc1cc2nccc(Oc3ccc(NC(=O)NC4CC4)c(Cl)c3)c2cc1C(N)=O [lenvatinib Mesylate]
cell viability [%]
Conditions | drug 2 concentration 0 µM | drug 2 concentration 0.277778 µM | drug 2 concentration 0.833333 µM | drug 2 concentration 2.5 µM | drug 2 concentration 7.5 µM | drug 2 concentration 22.5 µM
drug 1 concentration 0.00617284 µM | 93.7 | 93.8 | 94.7 | 96.3 | 91 | 61.6
drug 1 concentration 0.0185185 µM | 106 | 107 | 104 | 110 | 106 | 52.9
drug 1 concentration 0.0555556 µM | 97.8 | 102 | 102 | 104 | 107 | 69.1
drug 1 concentration 0.166667 µM | 99.7 | 101 | 101 | 100 | 101 | 52.7
drug 1 concentration 0.5 µM | 103 | 99.1 | 102 | 107 | 103 | 57.8

Cc1ccc(Nc2nccc(N(C)c3ccc4c(C)n(C)nc4c3)n2)cc1S(N)(=O)=O [Pazopanib] + C=C1/C(=C\C=C2/CCC[C@]3(C)[C@@H]([C@H](C)CCCC(C)C)CC[C@@H]23)C[C@@H](O)C[C@@H]1O [Alfacalcidol]
cell viability [%]
Conditions | drug 2 concentration 0 µM | drug 2 concentration 0.617284 µM | drug 2 concentration 1.85185 µM | drug 2 concentration 5.55556 µM | drug 2 concentration 16.6667 µM | drug 2 concentration 50 µM
drug 1 concentration 0.617284 µM | 99.8 | 88.8 | 95.5 | 93.5 | 85.3 | 9.41
drug 1 concentration 1.85185 µM | 94.3 | 93.6 | 95.6 | 87.7 | 74.6 | 29.1
drug 1 concentration 5.55556 µM | 89.3 | 77.9 | 82.2 | 76.9 | 67.2 | 7.47
drug 1 concentration 16.6667 µM | 60.4 | 57.5 | 55.1 | 56.5 | 46.3 | 0.743
drug 1 concentration 50 µM | 41.8 | 40.9 | 39.4 | 28.1 | 9.2 | 0.708

Cc1ccc(Nc2nccc(N(C)c3ccc4c(C)n(C)nc4c3)n2)cc1S(N)(=O)=O [Pazopanib] + CC(C)C[C@@H](C(=O)N[C@H](C(=O)OC1CCCC1)c1ccccc1)[C@H](O)C(=O)NO [Tosedostat]
cell viability [%]
Conditions | drug 2 concentration 0 µM | drug 2 concentration 0.246914 µM | drug 2 concentration 0.740741 µM | drug 2 concentration 2.22222 µM | drug 2 concentration 6.66667 µM | drug 2 concentration 20 µM
drug 1 concentration 0.617284 µM | 88.8 | 69.7 | 68.4 | 62.01 | 57.5 | 42.2
drug 1 concentration 1.85185 µM | 85.6 | 75.2 | 72.1 | 64.8 | 58.4 | 48.5
drug 1 concentration 5.55556 µM | 78.8 | 75.8 | 71 | 63 | 55.2 | 41.1
drug 1 concentration 16.6667 µM | 51.4 | 55.4 | 52 | 50.7 | 43 | 33.4
drug 1 concentration 50 µM | 62.8 | 54.9 | 48.8 | 51.3 | 34.9 | 33.5

Cc1ccc(Nc2nccc(N(C)c3ccc4c(C)n(C)nc4c3)n2)cc1S(N)(=O)=O [Pazopanib] + CN1CCN(CCCN2c3ccccc3Sc3ccc(C(F)(F)F)cc32)CC1 [Trifluoperazine 2HCl]
cell viability [%]
Conditions | drug 2 concentration 0 µM | drug 2 concentration 0.185185 µM | drug 2 concentration 0.555556 µM | drug 2 concentration 1.66667 µM | drug 2 concentration 5 µM | drug 2 concentration 15 µM
drug 1 concentration 0.617284 µM | 87.8 | 90.5 | 86.2 | 89.6 | 84.4 | 10.2
drug 1 concentration 1.85185 µM | 96.41 | 92.4 | 98.6 | 89.4 | 83.1 | 20.2
drug 1 concentration 5.55556 µM | 80.9 | 83.1 | 85 | 85.7 | 75.1 | 6.28
drug 1 concentration 16.6667 µM | 56.7 | 55.8 | 51.9 | 45.6 | 40.1 | 0.623
drug 1 concentration 50 µM | 68.1 | 63.6 | 44.1 | 32.1 | 17.4 | 0.368

Cc1ccc(Nc2nccc(N(C)c3ccc4c(C)n(C)nc4c3)n2)cc1S(N)(=O)=O [Pazopanib] + CN(C)CCCN1c2ccccc2CCc2ccc(Cl)cc21 [Clomipramine (hydrochloride)]
cell viability [%]
Conditions | drug 2 concentration 0 µM | drug 2 concentration 0.123457 µM | drug 2 concentration 0.37037 µM | drug 2 concentration 1.11111 µM | drug 2 concentration 3.33333 µM | drug 2 concentration 10 µM
drug 1 concentration 0.617284 µM | 96.6 | 82 | 80.8 | 82.2 | 83.1 | 75.2
drug 1 concentration 1.85185 µM | 78.6 | 80.8 | 81.3 | 80.3 | 78.5 | 68.9
drug 1 concentration 5.55556 µM | 83 | 76.2 | 77.3 | 82.7 | 72.7 | 66.2
drug 1 concentration 16.6667 µM | 51 | 49.2 | 46.7 | 45.9 | 45.5 | 21.7
drug 1 concentration 50 µM | 54.1 | 48.8 | 49.2 | 42.6 | 41.6 | 12.1

Cc1ccc(Nc2nccc(N(C)c3ccc4c(C)n(C)nc4c3)n2)cc1S(N)(=O)=O [Pazopanib] + COc1cc2ncnc(Nc3ccc(F)c(Cl)c3)c2cc1NC(=O)/C=C/CN1CCCCC1 [Dacomitinib]
cell viability [%]
Conditions | drug 2 concentration 0 µM | drug 2 concentration 0.246914 µM | drug 2 concentration 0.740741 µM | drug 2 concentration 2.22222 µM | drug 2 concentration 6.66667 µM | drug 2 concentration 20 µM
drug 1 concentration 0.617284 µM | 108 | 116 | 100 | 94.5 | 38.3 | 0.658
drug 1 concentration 1.85185 µM | 110 | 105 | 110 | 94.3 | 34.6 | 0.634
drug 1 concentration 5.55556 µM | 77.3 | 78.6 | 77.1 | 70.5 | 34.7 | 0.641
drug 1 concentration 16.6667 µM | 56.6 | 54.5 | 57.8 | 62.6 | 23.9 | 0.454
drug 1 concentration 50 µM | 48.6 | 53.3 | 49.3 | 38.3 | 7.63 | 0.87

Cc1ccc(Nc2nccc(N(C)c3ccc4c(C)n(C)nc4c3)n2)cc1S(N)(=O)=O [Pazopanib] + COc1cc(Nc2ncc3c(n2)-c2ccc(Cl)cc2C(c2c(F)cccc2OC)=NC3)ccc1C(=O)O [Alisertib]
cell viability [%]
Conditions | drug 2 concentration 0 µM | drug 2 concentration 0.0617284 µM | drug 2 concentration 0.185185 µM | drug 2 concentration 0.555556 µM | drug 2 concentration 1.66667 µM | drug 2 concentration 5 µM
drug 1 concentration 0.617284 µM | 95.4 | 98.4 | 106 | 110 | 96.7 | 85.3
drug 1 concentration 1.85185 µM | 93.1 | 93.6 | 98.3 | 98.2 | 89 | 87.1
drug 1 concentration 5.55556 µM | 96.1 | 92.9 | 88.5 | 76.8 | 75 | 77.7
drug 1 concentration 16.6667 µM | 58.9 | 55.9 | 62 | 59.8 | 49.9 | 57.3
drug 1 concentration 50 µM | 63.2 | 73.1 | 70.5 | 61.2 | 43.9 | 23.7

Cc1ccc(Nc2nccc(N(C)c3ccc4c(C)n(C)nc4c3)n2)cc1S(N)(=O)=O [Pazopanib] + C[C@]12C=CC(=O)C=C1CC[C@@H]1[C@@H]2[C@@H](O)C[C@@]2(C)[C@H]1CC[C@]2(O)C(=O)CO [Prednisolone]
cell viability [%]
Conditions | drug 2 concentration 0 µM | drug 2 concentration 0.0617284 µM | drug 2 concentration 0.185185 µM | drug 2 concentration 0.555556 µM | drug 2 concentration 1.66667 µM | drug 2 concentration 5 µM
drug 1 concentration 0.617284 µM | 87.9 | 90.6 | 84.5 | 89.9 | 92.4 | 95.7
drug 1 concentration 1.85185 µM | 85.9 | 79.7 | 82.7 | 81.7 | 82.96 | 92
drug 1 concentration 5.55556 µM | 76 | 80.5 | 87 | 81.4 | 83.6 | 106
drug 1 concentration 16.6667 µM | 46.7 | 45.6 | 48.2 | 53.2 | 46.6 | 49.6
drug 1 concentration 50 µM | 61.9 | 60.3 | 58.2 | 55.8 | 60.3 | 57.2

Cc1ccc(Nc2nccc(N(C)c3ccc4c(C)n(C)nc4c3)n2)cc1S(N)(=O)=O [Pazopanib] + Cc1c(Cn2c(C)nc3c(C(=O)O)cc(N4CCOCC4)cc32)cccc1C(F)(F)F [GSK2636771]
cell viability [%]
Conditions | drug 2 concentration 0 µM | drug 2 concentration 0.0123457 µM | drug 2 concentration 0.037037 µM | drug 2 concentration 0.111111 µM | drug 2 concentration 0.333333 µM | drug 2 concentration 1 µM
drug 1 concentration 0.617284 µM | 101 | 93 | 90.5 | 94.7 | 92.7 | 88.9
drug 1 concentration 1.85185 µM | 98 | 86.9 | 94.3 | 93.4 | 89.1 | 90.7
drug 1 concentration 5.55556 µM | 72.8 | 82.8 | 88.1 | 84 | 91.2 | 81.6
drug 1 concentration 16.6667 µM | 46.7 | 49.5 | 52.2 | 47.6 | 50.5 | 50.9
drug 1 concentration 50 µM | 34 | 29.7 | 28.7 | 32.6 | 28.8 | 29.2

Cc1ccc(Nc2nccc(N(C)c3ccc4c(C)n(C)nc4c3)n2)cc1S(N)(=O)=O [Pazopanib] + Cc1ncc(NC(=O)c2ccc(CN3CCN(C)CC3)c(C(F)(F)F)c2)cc1Nc1nccc(-c2cccnc2)n1 [Flumatinib (mesylate)]
cell viability [%]
Conditions | drug 2 concentration 0 µM | drug 2 concentration 0.617284 µM | drug 2 concentration 1.85185 µM | drug 2 concentration 5.55556 µM | drug 2 concentration 16.6667 µM | drug 2 concentration 50 µM
drug 1 concentration 0.617284 µM | 83.1 | 87.3 | 90.9 | 89.9 | 88.9 | 0.647
drug 1 concentration 1.85185 µM | 88.3 | 89.1 | 93.1 | 93.4 | 94.9 | 0.302
drug 1 concentration 5.55556 µM | 77.2 | 79.2 | 83 | 83.2 | 42.1 | 0.366
drug 1 concentration 16.6667 µM | 56.6 | 52.2 | 46.6 | 48.4 | 0.556 | 0.119
drug 1 concentration 50 µM | 69.9 | 69.8 | 59.8 | 29 | 0.529 | 0.318
